Results on two molecules are retold here after publication PMC9163075.

The chains behind the UniProt entries cited, without tags or fusion partners.
UniProt P28347: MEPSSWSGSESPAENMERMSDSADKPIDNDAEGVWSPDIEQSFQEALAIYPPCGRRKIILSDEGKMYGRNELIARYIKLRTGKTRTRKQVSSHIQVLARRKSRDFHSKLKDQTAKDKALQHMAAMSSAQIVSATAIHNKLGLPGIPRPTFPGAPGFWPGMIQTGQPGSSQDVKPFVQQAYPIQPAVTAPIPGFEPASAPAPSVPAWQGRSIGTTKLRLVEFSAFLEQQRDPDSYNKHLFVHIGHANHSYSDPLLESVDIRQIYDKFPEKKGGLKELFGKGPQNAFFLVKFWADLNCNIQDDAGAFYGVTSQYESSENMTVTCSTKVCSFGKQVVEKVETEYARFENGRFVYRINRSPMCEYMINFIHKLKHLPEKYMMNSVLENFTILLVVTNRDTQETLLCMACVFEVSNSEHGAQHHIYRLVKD
UniProt Q15561: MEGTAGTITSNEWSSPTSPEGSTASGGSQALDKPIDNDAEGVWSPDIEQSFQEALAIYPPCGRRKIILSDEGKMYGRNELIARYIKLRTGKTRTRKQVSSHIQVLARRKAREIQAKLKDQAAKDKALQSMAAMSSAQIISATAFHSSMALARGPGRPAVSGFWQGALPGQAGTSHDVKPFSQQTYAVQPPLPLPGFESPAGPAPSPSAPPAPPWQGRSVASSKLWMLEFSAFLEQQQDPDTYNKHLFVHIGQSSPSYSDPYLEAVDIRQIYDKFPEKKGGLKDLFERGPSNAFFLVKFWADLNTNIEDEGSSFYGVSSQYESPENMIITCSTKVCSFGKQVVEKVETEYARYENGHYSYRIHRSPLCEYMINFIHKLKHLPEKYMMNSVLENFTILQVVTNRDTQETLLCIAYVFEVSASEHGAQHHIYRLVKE
UniProt P03372: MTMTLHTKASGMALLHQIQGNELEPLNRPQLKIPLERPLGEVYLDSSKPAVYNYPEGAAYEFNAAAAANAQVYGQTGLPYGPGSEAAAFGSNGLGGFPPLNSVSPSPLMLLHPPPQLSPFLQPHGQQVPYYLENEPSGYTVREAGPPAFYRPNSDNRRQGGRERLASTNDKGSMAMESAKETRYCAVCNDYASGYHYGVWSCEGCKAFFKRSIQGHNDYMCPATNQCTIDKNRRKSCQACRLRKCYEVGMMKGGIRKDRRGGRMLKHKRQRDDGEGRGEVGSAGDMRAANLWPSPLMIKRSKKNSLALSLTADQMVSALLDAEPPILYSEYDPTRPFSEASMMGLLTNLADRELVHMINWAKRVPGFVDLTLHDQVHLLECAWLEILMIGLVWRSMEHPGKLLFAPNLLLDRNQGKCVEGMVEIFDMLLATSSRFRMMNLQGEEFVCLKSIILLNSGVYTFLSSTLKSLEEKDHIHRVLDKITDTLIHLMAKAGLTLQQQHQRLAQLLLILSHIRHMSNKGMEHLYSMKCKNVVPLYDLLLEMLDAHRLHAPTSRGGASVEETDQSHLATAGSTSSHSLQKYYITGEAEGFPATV

Results are given in words; binding and its absence hold for the method and conditions named. In cells and extracts the contact can be indirect. Some entries that bind do so weakly or less than the wild type.

The target in experiment [1] is TEAD1 (UniProt P28347). The experiment in a line: co-IP; endogenous proteins; MCF-7 lysates precleared with protein-A-Sepharose, incubated overnight with antibodies for ERα, YAP or TEAD4, mouse IgG as negative control, western blot; also after 2 μM XMU-MP-1 for the indicated time (more TEAD4-YAP, less TEAD4-ERα). (Immunoblotting shows a protein as a band on a membrane.)

The target in experiment [2] is TEAD4 in HEK293T cells (VGLL4 experiment, Supplementary Fig. 9) (UniProt Q15561). The experiment in a line: co-IP; HEK293T with overexpressed VGLL4 (Supplementary Fig. 9); the sentence does not name the method, co-IP is the only binding method of the paper.

Consider “Estrogen receptor α (ERα), endogenous in MCF-7 cells (from UniProt P03372 1-595)”, for which the binding result in experiment [1] is “binds”.

B1: VGLL4, overexpressed in HEK293T cells (protein, UniProt Q14135 1-290)
chain: METPLDVLSRAASLVHADDEKREAALRGEPRIQTLPVASALSSHRTGPPPISPSKRKFSMEPGDEDLDCDNDHVSKMSRIFNPHLNKTANGDCRRDPRERSRSPIERAVAPTMSLHGSHLYTSLPSLGLEQPLALTKNSLDASRPAGLSPTLTPGERQQNRPSVITCASAGARNCNLSHCPIAHSGCAAPGPASYRRPPSAATTCDPVVEEHFRRSLGKNYKEPEPAPNSVSITGSVDDHFAKALGDTWLQIKAAKDGASSSPESASRRGQPASPSAHMVSHSHSPSVVS
On to B1, for which the binding result in experiment [2] is given as “binds”.
